Literature values in patent US6930131B2, “Aryl substituted 3-ethoxy phenyl trifluoromethane sulfonamides for the treatment of non-insulin dependent diabetes mellitus (NIDDM)” (Wyeth, priority 2002, dated 2005).
At least one structure is not confirmed: it was looked up by name or label, or the drawing left a doubt.

System: ob/ob (C57 B1/6J) mice
Conditions: reference compound, 100 mg/kg/day; cited from earlier work

Compound: CC1(COc2ccc(CC3SC(=O)NC3=O)cc2)CCCCC1 (stereo not shown) [Ciglitazone, 5-(4-(1-methylcyclohexylmethoxy)-benzyl)-2,4-dione]
- lowering in plasma glucose: significant lowering in plasma glucose
